Measured values taken from the supplement of paper PMC12067093, “Discovery and optimisation of a covalent ligand for TRIM25 and its application to targeted protein ubiquitination” (Chemical Science, 2025).
The other results are listed elsewhere or left out.

The chains behind the UniProt entries cited, without tags or fusion partners. Where a name states a change or a piece, a line headed by the entry shows the natural chain unless it says otherwise.
UniProt P26641, whole entry, looked up: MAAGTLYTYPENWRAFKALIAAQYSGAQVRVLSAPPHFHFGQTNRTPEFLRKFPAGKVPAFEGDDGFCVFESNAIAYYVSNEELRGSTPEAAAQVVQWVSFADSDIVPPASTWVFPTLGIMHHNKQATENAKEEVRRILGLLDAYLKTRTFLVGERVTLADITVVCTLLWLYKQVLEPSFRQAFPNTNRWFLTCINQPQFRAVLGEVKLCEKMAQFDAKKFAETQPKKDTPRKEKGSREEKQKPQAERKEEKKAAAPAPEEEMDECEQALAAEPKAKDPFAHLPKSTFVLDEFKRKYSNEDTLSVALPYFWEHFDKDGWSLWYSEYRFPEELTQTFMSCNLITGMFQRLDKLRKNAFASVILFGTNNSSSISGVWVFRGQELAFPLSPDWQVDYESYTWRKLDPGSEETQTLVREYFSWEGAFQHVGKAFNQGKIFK
UniProt O75530, whole entry, looked up: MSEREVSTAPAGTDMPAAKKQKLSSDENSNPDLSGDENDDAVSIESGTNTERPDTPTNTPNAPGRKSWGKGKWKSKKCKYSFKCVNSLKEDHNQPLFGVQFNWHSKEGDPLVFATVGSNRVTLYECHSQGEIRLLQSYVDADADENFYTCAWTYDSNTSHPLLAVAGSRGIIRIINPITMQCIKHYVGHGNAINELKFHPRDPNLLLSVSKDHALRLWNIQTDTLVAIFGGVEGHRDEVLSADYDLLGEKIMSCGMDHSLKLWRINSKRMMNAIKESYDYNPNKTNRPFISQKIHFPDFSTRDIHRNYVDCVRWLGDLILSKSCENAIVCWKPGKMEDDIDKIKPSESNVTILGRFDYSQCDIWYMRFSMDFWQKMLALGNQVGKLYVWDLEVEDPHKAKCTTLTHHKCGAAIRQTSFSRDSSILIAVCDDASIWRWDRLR
UniProt O43324: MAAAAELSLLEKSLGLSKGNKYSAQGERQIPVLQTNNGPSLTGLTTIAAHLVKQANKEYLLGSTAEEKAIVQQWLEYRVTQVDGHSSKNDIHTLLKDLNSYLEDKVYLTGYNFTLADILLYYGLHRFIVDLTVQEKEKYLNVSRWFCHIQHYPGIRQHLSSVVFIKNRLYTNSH
UniProt P41567, whole entry, looked up: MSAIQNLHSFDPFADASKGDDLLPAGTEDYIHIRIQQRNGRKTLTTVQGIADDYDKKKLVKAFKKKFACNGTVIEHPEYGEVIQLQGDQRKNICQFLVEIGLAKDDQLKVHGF
UniProt Q08426: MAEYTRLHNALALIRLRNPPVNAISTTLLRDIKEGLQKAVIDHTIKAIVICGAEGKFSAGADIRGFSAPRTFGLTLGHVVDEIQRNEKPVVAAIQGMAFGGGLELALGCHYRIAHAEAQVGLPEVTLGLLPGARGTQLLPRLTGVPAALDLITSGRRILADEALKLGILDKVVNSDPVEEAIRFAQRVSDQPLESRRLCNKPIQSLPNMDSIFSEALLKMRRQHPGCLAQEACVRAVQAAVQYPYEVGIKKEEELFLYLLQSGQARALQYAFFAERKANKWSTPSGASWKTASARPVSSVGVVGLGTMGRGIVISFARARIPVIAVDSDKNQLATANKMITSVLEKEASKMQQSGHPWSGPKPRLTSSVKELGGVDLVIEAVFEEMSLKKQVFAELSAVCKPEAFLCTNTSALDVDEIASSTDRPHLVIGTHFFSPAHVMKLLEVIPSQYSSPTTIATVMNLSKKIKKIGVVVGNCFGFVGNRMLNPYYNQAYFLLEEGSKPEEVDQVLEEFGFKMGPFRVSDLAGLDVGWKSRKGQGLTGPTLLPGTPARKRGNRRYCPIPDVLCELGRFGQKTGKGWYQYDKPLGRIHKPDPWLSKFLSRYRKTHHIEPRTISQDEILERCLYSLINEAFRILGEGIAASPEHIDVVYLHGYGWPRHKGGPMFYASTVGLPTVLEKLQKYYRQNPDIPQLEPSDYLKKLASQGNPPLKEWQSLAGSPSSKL
UniProt Q9UHF1: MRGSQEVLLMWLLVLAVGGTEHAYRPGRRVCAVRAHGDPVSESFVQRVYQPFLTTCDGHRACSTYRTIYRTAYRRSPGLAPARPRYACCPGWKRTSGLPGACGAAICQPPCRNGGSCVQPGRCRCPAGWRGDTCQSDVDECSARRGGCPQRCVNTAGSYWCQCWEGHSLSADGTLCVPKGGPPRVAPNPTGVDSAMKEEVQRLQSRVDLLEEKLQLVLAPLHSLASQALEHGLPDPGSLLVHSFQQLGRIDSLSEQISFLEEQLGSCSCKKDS
UniProt Q16610: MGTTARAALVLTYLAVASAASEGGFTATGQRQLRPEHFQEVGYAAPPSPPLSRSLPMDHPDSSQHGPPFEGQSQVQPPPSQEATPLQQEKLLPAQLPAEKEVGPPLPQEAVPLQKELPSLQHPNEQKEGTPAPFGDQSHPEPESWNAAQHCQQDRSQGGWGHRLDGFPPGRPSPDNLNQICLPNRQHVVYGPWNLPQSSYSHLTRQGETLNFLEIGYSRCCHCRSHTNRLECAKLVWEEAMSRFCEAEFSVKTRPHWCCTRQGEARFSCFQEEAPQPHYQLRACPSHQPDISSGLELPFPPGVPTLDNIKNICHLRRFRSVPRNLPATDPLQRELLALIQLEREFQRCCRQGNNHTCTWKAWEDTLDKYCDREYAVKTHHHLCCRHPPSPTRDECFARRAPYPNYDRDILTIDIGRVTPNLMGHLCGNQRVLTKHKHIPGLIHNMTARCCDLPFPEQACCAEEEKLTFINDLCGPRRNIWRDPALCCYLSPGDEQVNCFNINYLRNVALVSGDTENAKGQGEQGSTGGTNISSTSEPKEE
UniProt P55884, whole entry, looked up: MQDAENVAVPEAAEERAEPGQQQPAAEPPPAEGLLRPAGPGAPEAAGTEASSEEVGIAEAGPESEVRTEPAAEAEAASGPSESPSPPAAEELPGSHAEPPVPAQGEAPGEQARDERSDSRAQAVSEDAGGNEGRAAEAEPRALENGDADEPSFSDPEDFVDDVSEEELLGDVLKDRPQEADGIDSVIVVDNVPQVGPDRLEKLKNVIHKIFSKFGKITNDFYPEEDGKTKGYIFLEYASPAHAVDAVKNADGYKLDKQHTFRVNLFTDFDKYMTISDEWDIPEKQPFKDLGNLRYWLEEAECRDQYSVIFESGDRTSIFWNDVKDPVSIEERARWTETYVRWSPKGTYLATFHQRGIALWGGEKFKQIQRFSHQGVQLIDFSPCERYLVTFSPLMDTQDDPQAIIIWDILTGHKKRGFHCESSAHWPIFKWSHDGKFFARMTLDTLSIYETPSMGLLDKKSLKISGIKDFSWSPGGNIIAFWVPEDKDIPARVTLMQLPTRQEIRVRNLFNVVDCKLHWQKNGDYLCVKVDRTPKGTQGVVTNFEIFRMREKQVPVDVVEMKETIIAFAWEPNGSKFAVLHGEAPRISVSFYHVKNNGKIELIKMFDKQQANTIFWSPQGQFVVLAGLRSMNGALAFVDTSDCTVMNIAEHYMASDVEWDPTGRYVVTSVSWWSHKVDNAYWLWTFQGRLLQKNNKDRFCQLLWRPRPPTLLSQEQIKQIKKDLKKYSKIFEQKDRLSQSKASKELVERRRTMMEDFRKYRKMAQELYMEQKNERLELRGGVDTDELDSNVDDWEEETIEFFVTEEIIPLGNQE
UniProt Q5VYK3, whole entry, looked up: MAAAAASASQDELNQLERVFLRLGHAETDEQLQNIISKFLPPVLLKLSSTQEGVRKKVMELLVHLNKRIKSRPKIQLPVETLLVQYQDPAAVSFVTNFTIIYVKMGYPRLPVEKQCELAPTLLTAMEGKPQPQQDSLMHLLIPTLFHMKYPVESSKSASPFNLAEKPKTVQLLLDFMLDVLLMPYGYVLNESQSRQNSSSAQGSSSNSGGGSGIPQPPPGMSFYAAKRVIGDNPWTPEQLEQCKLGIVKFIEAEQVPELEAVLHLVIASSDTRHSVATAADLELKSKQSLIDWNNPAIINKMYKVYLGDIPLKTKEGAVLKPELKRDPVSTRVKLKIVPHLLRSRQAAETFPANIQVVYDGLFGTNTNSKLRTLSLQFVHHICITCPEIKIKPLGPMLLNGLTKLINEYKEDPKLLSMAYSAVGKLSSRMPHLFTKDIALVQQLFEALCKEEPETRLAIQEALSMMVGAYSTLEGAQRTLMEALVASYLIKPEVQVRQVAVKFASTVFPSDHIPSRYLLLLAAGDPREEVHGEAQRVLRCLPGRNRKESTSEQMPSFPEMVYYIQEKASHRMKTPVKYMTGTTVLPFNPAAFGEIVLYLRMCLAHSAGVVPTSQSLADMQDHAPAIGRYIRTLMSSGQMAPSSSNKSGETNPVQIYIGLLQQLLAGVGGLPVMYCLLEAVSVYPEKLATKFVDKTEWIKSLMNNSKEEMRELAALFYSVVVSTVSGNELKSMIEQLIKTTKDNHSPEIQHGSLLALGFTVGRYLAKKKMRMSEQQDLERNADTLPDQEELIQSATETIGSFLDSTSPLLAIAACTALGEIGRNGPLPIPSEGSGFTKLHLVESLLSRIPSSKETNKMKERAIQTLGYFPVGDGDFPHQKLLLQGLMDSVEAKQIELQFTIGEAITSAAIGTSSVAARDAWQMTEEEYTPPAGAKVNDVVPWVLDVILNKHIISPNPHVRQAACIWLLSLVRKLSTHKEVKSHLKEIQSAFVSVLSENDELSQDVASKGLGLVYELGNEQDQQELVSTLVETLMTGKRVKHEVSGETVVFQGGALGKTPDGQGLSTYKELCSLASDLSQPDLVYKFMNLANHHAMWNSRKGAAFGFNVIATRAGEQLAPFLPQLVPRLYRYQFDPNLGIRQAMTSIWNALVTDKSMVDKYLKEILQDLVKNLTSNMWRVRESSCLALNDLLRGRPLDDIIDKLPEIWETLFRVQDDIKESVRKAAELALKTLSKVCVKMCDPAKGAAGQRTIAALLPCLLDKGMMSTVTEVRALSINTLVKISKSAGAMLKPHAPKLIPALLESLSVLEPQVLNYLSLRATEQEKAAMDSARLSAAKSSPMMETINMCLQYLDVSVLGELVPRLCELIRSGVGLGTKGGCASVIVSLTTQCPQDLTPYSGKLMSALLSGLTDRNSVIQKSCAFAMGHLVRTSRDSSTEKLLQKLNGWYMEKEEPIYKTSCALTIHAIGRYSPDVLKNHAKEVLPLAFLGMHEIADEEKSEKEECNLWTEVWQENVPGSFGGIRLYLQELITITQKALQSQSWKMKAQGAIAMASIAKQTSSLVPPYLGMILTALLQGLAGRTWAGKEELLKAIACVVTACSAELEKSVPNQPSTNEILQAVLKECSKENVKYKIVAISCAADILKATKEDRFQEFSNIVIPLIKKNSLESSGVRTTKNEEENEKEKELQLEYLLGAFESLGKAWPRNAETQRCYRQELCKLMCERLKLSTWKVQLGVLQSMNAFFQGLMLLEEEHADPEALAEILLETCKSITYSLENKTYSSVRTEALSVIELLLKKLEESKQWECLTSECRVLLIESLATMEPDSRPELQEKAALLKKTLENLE
UniProt Q96KQ7: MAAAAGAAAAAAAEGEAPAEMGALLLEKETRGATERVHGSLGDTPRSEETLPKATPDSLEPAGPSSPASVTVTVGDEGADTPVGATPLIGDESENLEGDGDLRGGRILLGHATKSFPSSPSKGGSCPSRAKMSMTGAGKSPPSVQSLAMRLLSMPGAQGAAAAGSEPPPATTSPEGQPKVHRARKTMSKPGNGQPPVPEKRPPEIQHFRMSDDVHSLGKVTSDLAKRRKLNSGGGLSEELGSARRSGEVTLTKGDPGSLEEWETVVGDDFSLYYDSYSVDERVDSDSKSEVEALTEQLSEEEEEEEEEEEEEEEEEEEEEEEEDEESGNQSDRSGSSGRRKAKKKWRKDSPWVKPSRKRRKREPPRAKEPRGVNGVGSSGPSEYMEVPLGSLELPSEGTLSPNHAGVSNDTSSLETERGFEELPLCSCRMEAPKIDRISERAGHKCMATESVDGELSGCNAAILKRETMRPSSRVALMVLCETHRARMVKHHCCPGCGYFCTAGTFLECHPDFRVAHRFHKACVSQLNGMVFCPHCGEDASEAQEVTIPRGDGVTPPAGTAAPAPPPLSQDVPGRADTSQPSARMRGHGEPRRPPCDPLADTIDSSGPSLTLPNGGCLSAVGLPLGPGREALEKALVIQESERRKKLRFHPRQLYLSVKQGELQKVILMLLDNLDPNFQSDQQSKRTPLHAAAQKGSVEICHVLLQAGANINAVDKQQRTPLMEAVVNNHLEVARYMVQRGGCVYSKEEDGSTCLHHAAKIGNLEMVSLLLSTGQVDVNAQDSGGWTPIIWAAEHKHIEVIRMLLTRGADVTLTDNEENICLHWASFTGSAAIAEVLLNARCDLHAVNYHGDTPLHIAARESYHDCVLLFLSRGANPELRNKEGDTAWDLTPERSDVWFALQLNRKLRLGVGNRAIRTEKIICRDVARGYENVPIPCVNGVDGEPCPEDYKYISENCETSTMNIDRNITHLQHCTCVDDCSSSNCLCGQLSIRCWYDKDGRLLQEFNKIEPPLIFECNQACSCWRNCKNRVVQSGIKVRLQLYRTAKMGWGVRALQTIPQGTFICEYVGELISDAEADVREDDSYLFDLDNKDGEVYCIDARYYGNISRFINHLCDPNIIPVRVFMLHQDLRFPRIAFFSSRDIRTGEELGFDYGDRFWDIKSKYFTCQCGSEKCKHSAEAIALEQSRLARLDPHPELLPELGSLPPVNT

Compound: CC1Cc2ccccc2N1C(=O)C1CCCN(C1)C(=O)CCl (mixture of isomers) [TRIM25 ligand 11 (diastereomer mixture)]
Experiment: probe-labelled cysteine peptide fold change vs DMSO (competition) (log2 fold change); higher = less target engagement (more negative = stronger competition)
Settings: THP-1, incubation time: 4 h
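Also: competitive chemoproteomic profiling in live THP-1 cells with an iodoacetamide desthiobiotin (IA-DTB) probe, comparing probe-labelled peptide intensities in compound-treated cells against DMSO-treated controls.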

Row | Target | probe-labelled cysteine peptide fold change (10 µM) | probe-labelled cysteine peptide fold change (50 µM)
1 | EEF1G_P26641_194_WFLTCINQPQFR (UniProt P26641) | -0.0063 | 0.00592
2 | EED_O75530_324_SCENAIVCWKPGK (UniProt O75530) | 0.00407 | -0.0285
3 | EIF2D_P41214_301_ADLPLLTSTFLGSHMFSCCPEGR (UniProt P41214) | 0.0735 | -0.0234
4 | EEF1E1_O43324_147_WFCHIQHYPGIR (UniProt O43324) | 0.0691 | 0.195
5 | EIF1_P41567_94_NICQFLVEIGLAKDDQLK (UniProt P41567) | -1.14 | -0.0838
6 | EHHADH_Q08426_559+566_YCPIPDVLCELGR (UniProt Q08426) | -0.196 | -0.249
7 | EEF1A1_P68104_363_NDPPMEAAGFTAQVIILNHPGQISAGYAPVLDCHTAHIACK (UniProt P68104) | -0.00529 | -0.121
8 | EHMT1_Q9H9B1_802_SPLHAAAEAGHVDICHMLVQAGANIDTCSEDQR (UniProt Q9H9B1) | -0.163 | -0.0515
9 | EGFL7_Q9UHF1_148_RGGCPQR (UniProt Q9UHF1) | -0.0831 | 0.0806
10 | ECM1_Q16610_151_EGTPAPFGDQSHPEPESWNAAQHCQQDR (UniProt Q16610) | 0.321 | 0.299
11 | EIF3B_P55884_302_YWLEEAECR (UniProt P55884) | 0.292 | 0.137
12 | ECPAS_Q5VYK3_602_MCLAHSAGVVPTSQSLADMQDHAPAIGR (UniProt Q5VYK3) | -0.316 | -0.0584
13 | EHMT2_Q96KQ7_1098_DGEVYCIDAR (UniProt Q96KQ7) | 0.0875 | 0.303

Quoted from above: nos. 12 to 13
Row | Target | probe-labelled cysteine peptide fold change (10 µM) | probe-labelled cysteine peptide fold change (50 µM)
12 | ECPAS_Q5VYK3_602_MCLAHSAGVVPTSQSLADMQDHAPAIGR (UniProt Q5VYK3) | -0.316 | -0.0584
13 | EHMT2_Q96KQ7_1098_DGEVYCIDAR (UniProt Q96KQ7) | 0.0875 | 0.303
